Library screen at single concentrations

Protein sequences, listed by entry. Tags and fused reporters are not part of them. Residues count along the entry.
UniProt A4I591, 1-473: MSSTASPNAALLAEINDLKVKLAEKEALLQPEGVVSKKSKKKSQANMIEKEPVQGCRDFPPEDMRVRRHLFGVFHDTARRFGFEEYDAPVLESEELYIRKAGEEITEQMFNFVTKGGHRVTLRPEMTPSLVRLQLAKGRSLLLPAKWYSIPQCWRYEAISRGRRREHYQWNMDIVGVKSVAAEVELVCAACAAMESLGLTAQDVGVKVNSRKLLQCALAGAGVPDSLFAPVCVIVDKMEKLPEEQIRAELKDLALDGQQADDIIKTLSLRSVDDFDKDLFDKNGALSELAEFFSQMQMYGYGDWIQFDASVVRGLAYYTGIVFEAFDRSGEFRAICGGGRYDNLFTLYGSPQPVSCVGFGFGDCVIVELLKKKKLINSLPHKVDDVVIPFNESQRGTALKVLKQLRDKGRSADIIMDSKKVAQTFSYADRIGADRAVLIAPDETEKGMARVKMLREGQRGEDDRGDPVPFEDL
UniProt I6X8D2, whole entry: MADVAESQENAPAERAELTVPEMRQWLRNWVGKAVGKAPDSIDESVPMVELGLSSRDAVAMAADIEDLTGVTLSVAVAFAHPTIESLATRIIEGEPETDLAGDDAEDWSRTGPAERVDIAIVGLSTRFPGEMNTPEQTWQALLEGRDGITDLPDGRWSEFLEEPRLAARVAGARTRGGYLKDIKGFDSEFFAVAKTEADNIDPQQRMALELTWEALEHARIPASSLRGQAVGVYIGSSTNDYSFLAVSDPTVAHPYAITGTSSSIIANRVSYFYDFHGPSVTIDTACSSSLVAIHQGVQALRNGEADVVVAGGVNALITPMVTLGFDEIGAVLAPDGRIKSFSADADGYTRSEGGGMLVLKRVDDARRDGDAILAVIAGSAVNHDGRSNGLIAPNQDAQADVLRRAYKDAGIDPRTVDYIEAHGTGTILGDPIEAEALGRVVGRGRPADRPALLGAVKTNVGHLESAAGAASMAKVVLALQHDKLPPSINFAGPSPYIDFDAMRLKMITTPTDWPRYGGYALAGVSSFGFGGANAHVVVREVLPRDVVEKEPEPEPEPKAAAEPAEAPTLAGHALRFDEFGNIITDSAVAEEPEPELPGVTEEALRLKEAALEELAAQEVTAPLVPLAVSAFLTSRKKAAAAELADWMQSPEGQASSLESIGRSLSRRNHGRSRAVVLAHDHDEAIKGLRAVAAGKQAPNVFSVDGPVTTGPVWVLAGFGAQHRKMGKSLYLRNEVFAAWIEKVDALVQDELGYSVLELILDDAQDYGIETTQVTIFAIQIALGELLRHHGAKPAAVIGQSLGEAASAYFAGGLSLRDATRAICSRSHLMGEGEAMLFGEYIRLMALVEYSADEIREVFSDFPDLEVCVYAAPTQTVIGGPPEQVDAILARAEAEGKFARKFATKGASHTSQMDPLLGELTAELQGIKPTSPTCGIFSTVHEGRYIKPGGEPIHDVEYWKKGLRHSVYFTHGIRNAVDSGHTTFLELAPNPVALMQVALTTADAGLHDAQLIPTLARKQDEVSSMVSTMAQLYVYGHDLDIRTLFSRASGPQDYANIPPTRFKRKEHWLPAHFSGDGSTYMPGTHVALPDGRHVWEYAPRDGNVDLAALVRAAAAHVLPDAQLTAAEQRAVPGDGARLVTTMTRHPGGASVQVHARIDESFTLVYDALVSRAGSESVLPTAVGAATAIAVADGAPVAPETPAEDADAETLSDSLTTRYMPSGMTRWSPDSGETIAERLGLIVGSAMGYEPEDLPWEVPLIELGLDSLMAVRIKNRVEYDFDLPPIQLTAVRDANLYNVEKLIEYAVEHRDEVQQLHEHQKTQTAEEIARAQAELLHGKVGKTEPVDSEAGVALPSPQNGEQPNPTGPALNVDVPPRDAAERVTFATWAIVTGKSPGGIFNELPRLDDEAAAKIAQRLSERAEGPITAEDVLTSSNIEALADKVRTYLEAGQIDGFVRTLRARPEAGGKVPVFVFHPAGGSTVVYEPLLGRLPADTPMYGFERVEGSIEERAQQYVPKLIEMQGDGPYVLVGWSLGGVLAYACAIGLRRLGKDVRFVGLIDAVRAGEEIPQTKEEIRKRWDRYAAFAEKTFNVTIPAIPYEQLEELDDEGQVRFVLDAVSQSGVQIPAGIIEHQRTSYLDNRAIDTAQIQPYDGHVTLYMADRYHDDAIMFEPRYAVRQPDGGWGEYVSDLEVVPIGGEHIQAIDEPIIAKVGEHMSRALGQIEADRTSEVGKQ
UniProt P9WFT3, whole entry: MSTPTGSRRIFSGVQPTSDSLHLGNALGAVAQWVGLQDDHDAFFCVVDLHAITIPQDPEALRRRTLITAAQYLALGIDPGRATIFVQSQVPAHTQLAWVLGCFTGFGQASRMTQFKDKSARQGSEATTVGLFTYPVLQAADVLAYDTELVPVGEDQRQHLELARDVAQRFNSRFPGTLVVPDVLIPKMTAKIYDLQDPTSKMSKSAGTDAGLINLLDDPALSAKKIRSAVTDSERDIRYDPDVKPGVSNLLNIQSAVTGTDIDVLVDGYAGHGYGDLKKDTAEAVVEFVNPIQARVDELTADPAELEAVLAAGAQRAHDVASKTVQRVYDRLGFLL
UniProt Q4DA54, 1-478: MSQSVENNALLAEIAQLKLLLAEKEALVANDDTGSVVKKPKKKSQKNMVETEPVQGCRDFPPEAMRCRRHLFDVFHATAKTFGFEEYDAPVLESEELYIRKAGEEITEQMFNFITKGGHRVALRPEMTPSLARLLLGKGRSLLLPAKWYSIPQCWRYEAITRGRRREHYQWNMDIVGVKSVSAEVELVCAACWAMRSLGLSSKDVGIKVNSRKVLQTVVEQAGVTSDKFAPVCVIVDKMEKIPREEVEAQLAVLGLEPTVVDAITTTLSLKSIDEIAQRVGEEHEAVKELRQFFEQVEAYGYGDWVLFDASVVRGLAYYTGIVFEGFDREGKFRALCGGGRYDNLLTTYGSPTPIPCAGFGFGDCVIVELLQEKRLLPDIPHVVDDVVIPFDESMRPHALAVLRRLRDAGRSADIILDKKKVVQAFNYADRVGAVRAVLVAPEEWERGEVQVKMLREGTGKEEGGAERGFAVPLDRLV

Measurements from “University of Dundee, Small-Polar-MMV Screening Library” (2021), ChEMBL document CHEMBL3988442.

Results are given as percent effect. The controls that fix the scale are not given in the record; negative values are as filed. This is an unselected part of the compounds tested.

LiHisRS: 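Histidine-tRNA ligase, Leishmania infantum (UniProt A4I591). Enzyme assay of histidyl-tRNA synthetase; the read-out is not stated. Concentration: 30 µM. Direction is inferred from retests: higher values go with stronger inhibition. The assay is labelled LdHisRS but filed under L. infantum. Of about 69,000 compounds tested this way, about 410 (0.6%) reached 50% or more in at least one test.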
Pks13 thioesterase: 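Polyketide synthase Pks13, Mycobacterium tuberculosis (UniProt I6X8D2). Enzyme assay of the thioesterase domain of polyketide synthase 13; the read-out is not stated. Compounds at 30 µM. Higher reads as stronger inhibition (inferred from which compounds were picked for retests). About 67,000 compounds were tested under these conditions; 0.46% (about 300) showed 50% or more at least once.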
MtTrpRS: 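Tryptophan-tRNA ligase, Mycobacterium tuberculosis (UniProt P9WFT3). Enzyme assay of tryptophanyl-tRNA synthetase; the read-out is not stated. Concentration: 10 µM. Direction is not recorded; retested compounds ran higher, which suggests that high means inhibition. About 65,000 compounds were tested under these conditions; 0.098% (about 64) showed 50% or more at least once.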
TcHisRS: 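Histidine-tRNA ligase, Trypanosoma cruzi CL Brener (UniProt Q4DA54). Enzyme assay of histidyl-tRNA synthetase; the read-out is not stated. Compounds at 30 µM. The record gives no direction; compounds that gave an IC50 in retests scored well above the rest, so higher reads as stronger inhibition. Of about 69,000 compounds tested this way, about 31 (0.045%) reached 50% or more in at least one test.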

{"compound": "O=C(C1CCC1)N1CCC2(CC1)OCCO2", "LiHisRS": 0, "Pks13 thioesterase": -19.47, "MtTrpRS": -3.708, "TcHisRS": 4.348}
{"compound": "CN1[C@H](CN2CCCC2)C[C@@H]2CN(C(=O)c3cccn3C)CC[C@@H]21", "LiHisRS": 29.27, "Pks13 thioesterase": -2.415, "MtTrpRS": 0.5344, "TcHisRS": 8.271}
{"compound": "Cc1nc(CN(C)C2CCN(Cc3ccc(C(N)=O)cc3)C2)no1", "stereo": "centres unmarked", "LiHisRS": 11.5, "Pks13 thioesterase": -12.38, "MtTrpRS": -4.263, "TcHisRS": 3.207}
{"compound": "Cc1n[nH]c(C)c1NC(=O)c1cccc(OCC(F)(F)F)n1", "LiHisRS": 14.71, "Pks13 thioesterase": -4.104, "MtTrpRS": -0.09911, "TcHisRS": 3.704}
{"compound": "N[C@H]1CN(C(=O)c2ccc(Cl)cc2F)C[C@@H]1C1CC1", "LiHisRS": 10.99, "Pks13 thioesterase": -6.578, "MtTrpRS": -1.192, "TcHisRS": 10.24}
{"compound": "CCOC(=O)[C@H]1CNC[C@H]1C(=O)OCC", "LiHisRS": 18.75, "Pks13 thioesterase": -18.95, "MtTrpRS": 4.432, "TcHisRS": 6.25}
{"compound": "CC(C)Sc1nnnn1C1CCCC1", "LiHisRS": 11.29, "Pks13 thioesterase": -7.576, "MtTrpRS": -3.762, "TcHisRS": 9.195}
{"compound": "CCN(C)CC(C)Cn1cnc(-c2ccccc2)c1-c1cncn1CC", "stereo": "centres unmarked", "LiHisRS": -6, "Pks13 thioesterase": 0.1607, "MtTrpRS": 3.665, "TcHisRS": 6.024}
{"compound": "c1ccc(CCN2CC(n3cccn3)C2)nc1", "LiHisRS": 29.27, "Pks13 thioesterase": 13.57, "MtTrpRS": -0.5939, "TcHisRS": 21.63}
{"compound": "CCOc1ccc(CNC(C)c2ccc3[nH]c(=O)[nH]c3c2)cc1", "stereo": "centres unmarked", "LiHisRS": 5.357, "Pks13 thioesterase": -1.226, "MtTrpRS": -7.866, "TcHisRS": 1.744}
{"compound": "Cc1ccc(CN(C(=O)NCCNC(=O)c2cccnc2)C(C)C)o1", "LiHisRS": 6.667, "Pks13 thioesterase": 4.874, "MtTrpRS": 17.66, "TcHisRS": -1.299}
{"compound": "O=C(NCCc1cccs1)[C@]12COC[C@H]1CN(c1ncccn1)C2", "LiHisRS": 14, "Pks13 thioesterase": 0.9249, "MtTrpRS": -2.698, "TcHisRS": 1.031}
{"compound": "Cc1cc(C(=O)N2CCn3cc(CN4CCCCC4)nc3C2)no1", "LiHisRS": 16, "Pks13 thioesterase": -4.736, "MtTrpRS": -3.753, "TcHisRS": 9.804}
{"compound": "CS(=O)(=O)N[C@@H]1CN(Cc2ccco2)C[C@@H]2CCCO[C@@H]21", "LiHisRS": 14.29, "Pks13 thioesterase": -36.94, "MtTrpRS": 0, "TcHisRS": 1.961}
{"compound": "COC(=O)c1cc(OCC2CCC2)cc(C(=O)N[C@@H](C)CO)c1", "LiHisRS": 18.07, "Pks13 thioesterase": -1.217, "MtTrpRS": -0.6798, "TcHisRS": 1.22}
{"compound": "Cc1cc(CSCc2ccccn2)on1", "LiHisRS": 8, "Pks13 thioesterase": -18.85, "MtTrpRS": 6.286, "TcHisRS": 0.5435}
{"compound": "Cc1nccn1CCC(=O)N1CCCN(c2ccccc2)CC1", "LiHisRS": 14, "Pks13 thioesterase": 1.305, "MtTrpRS": -0.6224, "TcHisRS": 6.024}
{"compound": "CC(NC(=O)c1cc2n(n1)CCCN(C)C2)c1cn2ccsc2n1", "stereo": "centres unmarked", "LiHisRS": 8.889, "Pks13 thioesterase": 1.145, "MtTrpRS": 4.198, "TcHisRS": 11.9}
{"compound": "CCS(=O)(=O)N1CCc2ccc(NC(=O)Nc3ccccc3C)cc21", "LiHisRS": -4.494, "Pks13 thioesterase": 5.005, "MtTrpRS": 2.201, "TcHisRS": 4.523}
{"compound": "Cc1nc(N2CCC3(CCCN(CCO)C3=O)C2)c2sccc2n1", "stereo": "centres unmarked", "LiHisRS": 4.167, "Pks13 thioesterase": -15.21, "MtTrpRS": -1.238, "TcHisRS": 9.211}
{"compound": "COCc1nc(C(=O)N2CCCCC2Cn2cccn2)cs1", "stereo": "centres unmarked", "LiHisRS": 7.576, "Pks13 thioesterase": -6.583, "MtTrpRS": 0.4873, "TcHisRS": -3.03}